The target of assay [1] is eukaryotic initiation factor 4E (eIF4E) (UniProt P06730). Nature of the assay: fluorescence correlation spectroscopy.
For assay [2] the target is unchanged. Nature of the assay: fluorescence anisotropy decay. (In general: Fluorescence polarisation rises when a labelled molecule tumbles more slowly, as on binding a larger partner.)

Protein sequences, listed by entry. Tags and fused reporters are not part of them. Lines headed by an entry give the natural chain unless they say otherwise; changes in a name come on top. Chains listed by the source or under a name are the forms on record and can include a tag or linker.
UniProt P06730: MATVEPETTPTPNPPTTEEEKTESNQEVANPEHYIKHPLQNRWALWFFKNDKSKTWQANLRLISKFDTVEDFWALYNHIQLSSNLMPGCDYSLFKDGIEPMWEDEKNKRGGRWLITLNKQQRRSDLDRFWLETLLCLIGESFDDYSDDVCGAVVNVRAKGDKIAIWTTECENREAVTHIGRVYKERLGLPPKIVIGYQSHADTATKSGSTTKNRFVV
4E-BP2 C0 (C0ins/C35S/C73S), non-phosphorylated, labelled with Atto488 at position 0 (Q13542, form named): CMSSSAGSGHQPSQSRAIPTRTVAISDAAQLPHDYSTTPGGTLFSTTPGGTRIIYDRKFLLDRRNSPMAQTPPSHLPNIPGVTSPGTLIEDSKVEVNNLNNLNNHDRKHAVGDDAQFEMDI

These are yes or no findings as the source states them, for the method shown. Some results given as binding are weak or reduced against the parent protein; the word gives no strength.

On to “4E-BP2 C0 (C0ins/C35S/C73S), non-phosphorylated, labelled with Atto488 at position 0 (from UniProt Q13542 1-120)”, for which the binding result in assay [1] and in assay [2] was “binds” each time.

(Values after publication doi:10.1101/2022.01.14.476386 (bioRxiv, 2022).)
